Laboratory results as given in the supplement of paper PMC8728848.
Some of the results follow.

Key:
Test in all cases: glycan array binding signal (z-score within array); higher = stronger binding
Conditions in all cases: glycan notation: IUPAC condensed, linker removed
[1] = target: Fuc(a1-2)[Gal(a1-3)]Gal(b1-4)GlcNAc(b1-2)Man(a1-3)[Fuc(a1-2)[Gal(a1-3)]Gal(b1-4)GlcNAc(b1-2)Man(a1-6)]Man(b1-4)GlcNAc(b1-4)[Fuc(a1-6)]GlcNAc
In short: (§1)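 The binding signal is a Z-score computed within each array. Data were drawn from 3228 arrays in the Consortium for Functional Glycomics database, restricted to those with a known protein sequence. Scores were averaged over arrays of the same protein sequence at different concentrations or buffers, and over linkers, and negative values can be taken as non-binding.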

[2] = target: Fuc(a1-2)[Gal(a1-3)]Gal(b1-4)GlcNAc(b1-3)GalNAc
In short: as §1

[3] = target: Fuc(a1-2)[Gal(a1-3)]Gal(b1-4)GlcNAc(b1-3)[Fuc(a1-2)[Gal(a1-3)]Gal(b1-4)GlcNAc(b1-6)]GalNAc
In short: as §1

[4] = target: Fuc(a1-2)[Gal(a1-3)]Gal(b1-4)GlcNAc(b1-6)GalNAc
In short: as §1

[5] = target: Fuc(a1-2)[Gal(a1-3)]Gal(b1-4)[Fuc(a1-3)]Glc
In short: as §1

[6] = target: Fuc(a1-2)[Gal(a1-3)]Gal(b1-4)[Fuc(a1-3)]GlcNAc
In short: as §1

[7] = target: Fuc(a1-2)[Gal(a1-3)]Gal(b1-4)[Fuc(a1-3)]GlcNAc(b1-3)GalNAc
In short: as §1

[8] = target: Fuc(a1-2)[Gal(a1-4)]Gal(b1-4)GlcNAc
In short: as §1

[9] = target: Fuc(a1-2)[GalNAc(a1-3)]Gal
In short: as §1

[10] = target: Fuc(a1-2)[GalNAc(a1-3)]Gal(b1-3)GalNAc(a1-3)[Fuc(a1-2)]Gal(b1-4)GlcNAc
In short: as §1

[11] = target: Fuc(a1-2)[GalNAc(a1-3)]Gal(b1-3)GalNAc(b1-3)Gal(a1-4)Gal(b1-4)Glc
In short: as §1

[12] = target: Fuc(a1-2)[GalNAc(a1-3)]Gal(b1-3)GlcNAc
In short: as §1

[13] = target: Fuc(a1-2)[GalNAc(a1-3)]Gal(b1-3)GlcNAc(b1-2)Man(a1-3)[Fuc(a1-2)[GalNAc(a1-3)]Gal(b1-3)GlcNAc(b1-2)Man(a1-6)]Man(b1-4)GlcNAc(b1-4)GlcNAc
In short: as §1

[14] = target: Fuc(a1-2)[GalNAc(a1-3)]Gal(b1-3)GlcNAc(b1-2)Man(a1-3)[Fuc(a1-2)[GalNAc(a1-3)]Gal(b1-3)GlcNAc(b1-2)Man(a1-6)]Man(b1-4)GlcNAc(b1-4)[Fuc(a1-6)]GlcNAc
In short: as §1

[15] = target: Fuc(a1-2)[GalNAc(a1-3)]Gal(b1-3)GlcNAc(b1-3)GalNAc
In short: as §1

[16] = target: Fuc(a1-2)[GalNAc(a1-3)]Gal(b1-3)GlcNAc(b1-6)GalNAc
In short: as §1

[17] = target: Fuc(a1-2)[GalNAc(a1-3)]Gal(b1-4)Glc
In short: as §1

[18] = target: Fuc(a1-2)[GalNAc(a1-3)]Gal(b1-4)GlcNAc
In short: as §1

[19] = target: Fuc(a1-2)[GalNAc(a1-3)]Gal(b1-4)GlcNAc(b1-2)Man
In short: as §1

[20] = target: Fuc(a1-2)[GalNAc(a1-3)]Gal(b1-4)GlcNAc(b1-2)Man(a1-3)[Fuc(a1-2)[GalNAc(a1-3)]Gal(b1-4)GlcNAc(b1-2)Man(a1-6)]Man(b1-4)GlcNAc(b1-4)GlcNAc
In short: as §1

[21] = target: Fuc(a1-2)[GalNAc(a1-3)]Gal(b1-4)GlcNAc(b1-2)Man(a1-3)[Fuc(a1-2)[GalNAc(a1-3)]Gal(b1-4)GlcNAc(b1-2)Man(a1-6)]Man(b1-4)GlcNAc(b1-4)[Fuc(a1-6)]GlcNAc
In short: as §1

[22] = target: Fuc(a1-2)[GalNAc(a1-3)]Gal(b1-4)GlcNAc(b1-3)Gal(b1-4)GlcNAc
In short: as §1

[23] = target: Fuc(a1-2)[GalNAc(a1-3)]Gal(b1-4)GlcNAc(b1-3)Gal(b1-4)GlcNAc(b1-3)Gal(b1-4)GlcNAc
In short: as §1

[24] = target: Fuc(a1-2)[GalNAc(a1-3)]Gal(b1-4)GlcNAc(b1-3)GalNAc
In short: as §1

[25] = target: Fuc(a1-2)[GalNAc(a1-3)]Gal(b1-4)GlcNAc(b1-3)[Fuc(a1-2)[GalNAc(a1-3)]Gal(b1-4)GlcNAc(b1-6)]GalNAc
In short: as §1

[26] = target: Fuc(a1-2)[GalNAc(a1-3)]Gal(b1-4)GlcNAc(b1-6)GalNAc
In short: as §1

[27] = target: Fuc(a1-2)[GalNAc(a1-3)]Gal(b1-4)[Fuc(a1-3)]GlcNAc
In short: as §1

[28] = target: Fuc(a1-2)[GalNAc(a1-3)]Gal(b1-4)[Fuc(a1-3)]GlcNAc(b1-3)GalNAc
In short: as §1

[29] = target: Fuc(a1-2)[GalNAc(a1-4)]Gal(b1-4)GlcNAc
In short: as §1

[30] = target: Fuc(a1-2)[GalNAc(b1-3)]Gal
In short: as §1

Fuc(a1-3)GlcNAc = target: Fuc(a1-3)GlcNAc
In short: as §1

[31] = target: Fuc(a1-3)[Gal(b1-4)]Glc6S
In short: as §1

[32] = target: Fuc(a1-3)[Gal(b1-4)]GlcNAc
In short: as §1

[33] = target: Fuc(a1-3)[Gal(b1-4)]GlcNAc(b1-2)Man
In short: as §1

[34] = target: Fuc(a1-3)[Gal(b1-4)]GlcNAc(b1-2)Man(a1-3)[Fuc(a1-3)[Gal(b1-4)]GlcNAc(b1-2)Man(a1-6)]Man(b1-4)GlcNAc(b1-4)GlcNAc
In short: as §1

[35] = target: Fuc(a1-3)[Gal(b1-4)]GlcNAc(b1-2)Man(a1-3)[Fuc(a1-3)[Gal(b1-4)]GlcNAc(b1-2)Man(a1-6)]Man(b1-4)GlcNAc(b1-4)[Fuc(a1-6)]GlcNAc
In short: as §1

[36] = target: Fuc(a1-3)[Gal(b1-4)]GlcNAc(b1-3)Gal(b1-3)[Fuc(a1-4)]GlcNAc
In short: as §1

[37] = target: Fuc(a1-3)[Gal(b1-4)]GlcNAc(b1-3)Gal(b1-4)[Fuc(a1-3)]GlcNAc
In short: as §1

[38] = target: Fuc(a1-3)[Gal(b1-4)]GlcNAc(b1-3)Gal(b1-4)[Fuc(a1-3)]GlcNAc(b1-3)Gal(b1-4)[Fuc(a1-3)]GlcNAc
In short: as §1

[39] = target: Fuc(a1-3)[Gal(b1-4)]GlcNAc(b1-3)GalNAc
In short: as §1

[40] = target: Fuc(a1-3)[Gal(b1-4)]GlcNAc(b1-6)GalNAc
In short: as §1

[41] = target: Fuc(a1-3)[Gal(b1-4)]GlcNAc(b1-6)[Gal(b1-3)GlcNAc(b1-3)]Gal(b1-4)Glc
In short: as §1

[42] = target: Fuc(a1-3)[Gal(b1-4)]GlcNAc6S
In short: as §1

[43] = target: Fuc(a1-3)[Gal3S(b1-4)]Glc
In short: as §1

[44] = target: Fuc(a1-3)[Gal3S(b1-4)]GlcNAc
In short: as §1

B1: PX9961W-pdi-543-27-543 (Parabacteroides distasonis) (protein)
chain: EGNATTTSYFLNDQQAIDAIDGLYERFHQEGCYGRELFWEQGAACDIVWGRTRGYNSLATLAYTGDESPLRDVFSRMYSTMSRANWIIQELVKKEKGTTLTAVEKRSLGEAYFSRGWAHYLIAYRYGTDKQGVPFVRYEDFPDDYDNSIPPQQATVMDNYKLIIEDMDKAIAYLPIFESYDADNRGRAHQAAAVAFKAKTYAYWATWDATQWNNVIEMVNQLENNYNRDLAPTFAELFSSDLKDYWNAEYLWTIPSIGGALPGGTEFPGIILENKGWGKYNGWGQMKPSYDIYEEMAKDGKGNDRLVRSILEYNQEFPFFGETRKFWSTSDLEAGFMINKYMDAFKYSDPVGEGAVSANGDWPTVRVNFPIIRFAEMLLFRAEAYLMTGQADKATADINRIRLRSNLTPLTGTATMKDLYHERRCELAFEFTDHLFDLKRWNRSSNADIKTLADKELNAHPRIRRYEDRANPESAFTIIGYEDYTNKNAYQAHMMVFPYPSEEITKSNGQLKQNEGY
- glycan array binding signal (z-score) [1]: 0.926
- glycan array binding signal (z-score) [2]: -0.242
- glycan array binding signal (z-score) [3]: -0.802
- glycan array binding signal (z-score) [4]: -0.831
- glycan array binding signal (z-score) [5]: 0.033
- glycan array binding signal (z-score) [6]: 0.755
- glycan array binding signal (z-score) [7]: 0.964
- glycan array binding signal (z-score) [8]: -0.708
- glycan array binding signal (z-score) [9]: -0.221
- glycan array binding signal (z-score) [10]: -1.17
- glycan array binding signal (z-score) [11]: -0.575
- glycan array binding signal (z-score) [12]: -0.704
- glycan array binding signal (z-score) [13]: -0.034
- glycan array binding signal (z-score) [14]: 0.276
- glycan array binding signal (z-score) [15]: 0.345
- glycan array binding signal (z-score) [16]: -0.379
- glycan array binding signal (z-score) [17]: 0.547
- glycan array binding signal (z-score) [18]: -0.457
- glycan array binding signal (z-score) [19]: 0.843
- glycan array binding signal (z-score) [20]: 0.645
- glycan array binding signal (z-score) [21]: -0.977
- glycan array binding signal (z-score) [22]: -1.08
- glycan array binding signal (z-score) [23]: 0.13
- glycan array binding signal (z-score) [24]: 0.133
- glycan array binding signal (z-score) [25]: 0.206
- glycan array binding signal (z-score) [26]: 0.203
- glycan array binding signal (z-score) [27]: 0.242
- glycan array binding signal (z-score) [28]: 0.227
- glycan array binding signal (z-score) [29]: -0.092
- glycan array binding signal (z-score) [30]: -0.355
- glycan array binding signal (z-score) (Fuc(a1-3)GlcNAc): -0.334
- glycan array binding signal (z-score) [31]: 0.459
- glycan array binding signal (z-score) [32]: 0.714
- glycan array binding signal (z-score) [33]: 0.236
- glycan array binding signal (z-score) [34]: 0.348
- glycan array binding signal (z-score) [35]: -0.663
- glycan array binding signal (z-score) [36]: 1.21
- glycan array binding signal (z-score) [37]: 1.22
- glycan array binding signal (z-score) [38]: -0.133
- glycan array binding signal (z-score) [39]: -0.28
- glycan array binding signal (z-score) [40]: 0.447
- glycan array binding signal (z-score) [41]: -0.969
- glycan array binding signal (z-score) [42]: 0.019
- glycan array binding signal (z-score) [43]: -0.215
- glycan array binding signal (z-score) [44]: -0.507
